Data reported in patent US20060193796A1, “Method for refining ultraviolet absorbent, ultraviolet absorbent and cosmetic material” (priority 2003, published 2006).

Experiment: Odor evaluation for ultraviolet absorbers (sensory evaluation)
Settings: sensory score, 10 ranks: 1, no odor; 10, very intense odor
Procedure: Odor Evaluation for Ultraviolet Absorbers Sensory evaluation of odor was performed for the ultraviolet absorbers. The intensity of overall odor and that of irritating odor were evaluated using one of 10 ranks: 1, no odor; . . .; 10, very intense odor and scored.

Row | Compound | Evaluation for ultraviolet absorber: Odor
1 | CCCCC(CC)COC(=O)C=Cc1ccc(OC)cc1 (stereo not shown) [compound 4, 2-ethylhexyl p-methoxycinnamate] | 4
2 | CCCCC(CC)COC(=O)C=Cc1ccc(OC)cc1 (stereo not shown) [compound 1, 2-ethylhexyl p-methoxycinnamate] | 10
3 | CCCCC(CC)COC(=O)C=Cc1ccc(OC)cc1 (stereo not shown) [compound 7, 2-ethylhexyl p-methoxycinnamate] | 5
4 | CCCCC(CC)COC(=O)C=Cc1ccc(OC)cc1 (stereo not shown) [Example 1, 2-ethylhexyl p-methoxycinnamate] | 1
5 | CCCCC(CC)COC(=O)C=Cc1ccc(OC)cc1 (stereo not shown) [compound 9, 2-ethylhexyl p-methoxycinnamate] | 1
6 | CCCCC(CC)COC(=O)C=Cc1ccc(OC)cc1 (stereo not shown) [compound 6, 2-ethylhexyl p-methoxycinnamate] | 5
7 | CCCCC(CC)COC(=O)C=Cc1ccc(OC)cc1 (stereo not shown) [Example 2, 2-ethylhexyl p-methoxycinnamate] | 1
8 | CCCCC(CC)COC(=O)C=Cc1ccc(OC)cc1 (stereo not shown) [compound 5, 2-ethylhexyl p-methoxycinnamate] | 6
9 | CCCCC(CC)COC(=O)C=Cc1ccc(OC)cc1 (stereo not shown) [compound 3, 2-ethylhexyl p-methoxycinnamate] | 7
10 | CCCCC(CC)COC(=O)C=Cc1ccc(OC)cc1 (stereo not shown) [Example 4, 2-ethylhexyl p-methoxycinnamate] | 1
11 | CCCCC(CC)COC(=O)C=Cc1ccc(OC)cc1 (stereo not shown) [compound 2, 2-ethylhexyl p-methoxycinnamate] | 6
12 | CCCCC(CC)COC(=O)C=Cc1ccc(OC)cc1 (stereo not shown) [compound 8, 2-ethylhexyl p-methoxycinnamate] | 5
13 | CCCCC(CC)COC(=O)C=Cc1ccc(OC)cc1 (stereo not shown) [Example 3, 2-ethylhexyl p-methoxycinnamate] | 1
